Data reported in article PMC12292469.
Results are given in words; binding and its absence hold for the method and conditions named. In cells and extracts the contact can be indirect. Some binding calls cover weakened binding; strength is not graded here. Tags and fused reporters may be left off the sequences shown.

Molecular target: T1, calcineurin B homologous protein isoform 1 (CHP1), FLAG-tagged (human) (UniProt Q99653)
T1 sequence: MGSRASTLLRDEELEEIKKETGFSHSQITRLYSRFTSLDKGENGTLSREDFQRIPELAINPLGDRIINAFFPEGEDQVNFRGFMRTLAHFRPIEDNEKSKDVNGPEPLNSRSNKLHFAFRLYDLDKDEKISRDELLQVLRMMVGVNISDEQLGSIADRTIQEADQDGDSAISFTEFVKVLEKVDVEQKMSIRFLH
Test: co-IP; HEK293T cells transfected with FLAG-CHP1, lysed 48 h later in TNE buffer (10 mM Tris pH 8.0, 150 mM NaCl, 1 mM EDTA, 1% NP-40, 10% glycerol); anti-FLAG magnetic beads overnight at 4 °C; immunoblot with anti-FLAG and anti-SLC38A1

binding: binds
B1: solute carrier family 38 member 1 (SLC38A1) (protein, UniProt Q9H2H9 1-487)
chain: MMHFKSGLELTELQNMTVPEDDNISNDSNDFTEVENGQINSKFISDRESRRSLTNSHLEKKKCDEYIPGTTSLGMSVFNLSNAIMGSGILGLAFALANTGILLFLVLLTSVTLLSIYSINLLLICSKETGCMVYEKLGEQVFGTTGKFVIFGATSLQNTGAMLSYLFIVKNELPSAIKFLMGKEETFSAWYVDGRVLVVIVTFGIILPLCLLKNLGYLGYTSGFSLSCMVFFLIVVIYKKFQIPCIVPELNSTISANSTNADTCTPKYVTFNSKTVYALPTIAFAFVCHPSVLPIYSELKDRSQKKMQMVSNISFFAMFVMYFLTAIFGYLTFYDNVQSDLLHKYQSKDDILILTVRLAVIVAVILTVPVLFFTVRSSLFELAKKTKFNLCRHTVVTCILLVVINLLVIFIPSMKDIFGVVGVTSANMLIFILPSSLYLKITDQDGDKGTQRIWAALFLGLGVLFSLVSIPLVIYDWACSSSSDEGH
